Patent publication US10172837B2, “Insulin sensitisers and methods of treatment” (NAIA Metabolic, Inc., priority 2007, dated 2019)

Test system: Diet-Induced Obese (DIO) Mice
Test: Fasting plasma glucose in diet-induced obese mice
Type: in vivo, Mus Musculus

NS(=O)(=O)c1cc(C(=O)O)c(NCc2ccco2)cc1Cl [Furosemide]
effect on fasting plasma glucose levels of diet-induced obese mice: no beneficial effect
